The other results are listed elsewhere or left out.
Columns and labels:
Assay in all cases: log2 fold change, soluble protein after heating vs DMSO (PISA); higher = thermal stabilisation; K562 cells, 10 uM, 30 min; active = over 0.2 and 3.5 SD of the protein, either way, in both replicates (recomputed)
[1] = compound: CC1=C(C=C(C=C1)NC(=O)C2=CC(=CC=C2)C(C)(C)C#N)NC3=CC4=C(C=C3)N=CN(C4=O)C
How it was run: (§1)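 Values are thermal stability changes relative to control samples and are taken from duplicates. They are stated as log2 fold changes. Before quantification by TMTpro 16plex LC-MS/MS with equalised channel sums, K562 cells at 2×10^6 cells/mL were treated with 10 μM compound for 30 min, heated in aliquots for 3 min across 48°C-58°C, pooled, extracted in PBS with 0.5% NP-40 at 4°C, and centrifuged at 21,000xg for 90 min to give the soluble supernatant.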

Amino acid sequences for entries named in this document (tags omitted). A change or cut given only in a name is not applied to a line headed by its entry.
UniProt O43524: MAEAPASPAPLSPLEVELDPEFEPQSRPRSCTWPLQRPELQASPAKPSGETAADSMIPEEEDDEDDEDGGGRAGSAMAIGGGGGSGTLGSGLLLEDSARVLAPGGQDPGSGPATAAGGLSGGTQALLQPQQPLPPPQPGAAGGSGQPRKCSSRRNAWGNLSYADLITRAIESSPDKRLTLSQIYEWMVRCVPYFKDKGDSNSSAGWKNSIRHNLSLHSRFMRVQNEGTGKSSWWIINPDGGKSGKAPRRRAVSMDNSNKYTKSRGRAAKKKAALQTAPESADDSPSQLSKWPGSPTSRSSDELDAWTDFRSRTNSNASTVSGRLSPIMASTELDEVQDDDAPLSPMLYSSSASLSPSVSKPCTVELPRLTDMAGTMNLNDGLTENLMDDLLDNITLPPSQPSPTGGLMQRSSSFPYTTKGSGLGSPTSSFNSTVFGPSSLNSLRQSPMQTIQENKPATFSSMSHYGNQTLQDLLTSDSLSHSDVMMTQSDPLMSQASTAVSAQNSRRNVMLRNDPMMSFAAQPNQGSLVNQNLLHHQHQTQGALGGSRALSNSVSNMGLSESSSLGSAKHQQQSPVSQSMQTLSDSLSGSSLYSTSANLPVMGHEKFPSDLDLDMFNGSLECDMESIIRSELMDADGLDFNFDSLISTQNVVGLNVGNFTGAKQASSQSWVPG
UniProt P48506: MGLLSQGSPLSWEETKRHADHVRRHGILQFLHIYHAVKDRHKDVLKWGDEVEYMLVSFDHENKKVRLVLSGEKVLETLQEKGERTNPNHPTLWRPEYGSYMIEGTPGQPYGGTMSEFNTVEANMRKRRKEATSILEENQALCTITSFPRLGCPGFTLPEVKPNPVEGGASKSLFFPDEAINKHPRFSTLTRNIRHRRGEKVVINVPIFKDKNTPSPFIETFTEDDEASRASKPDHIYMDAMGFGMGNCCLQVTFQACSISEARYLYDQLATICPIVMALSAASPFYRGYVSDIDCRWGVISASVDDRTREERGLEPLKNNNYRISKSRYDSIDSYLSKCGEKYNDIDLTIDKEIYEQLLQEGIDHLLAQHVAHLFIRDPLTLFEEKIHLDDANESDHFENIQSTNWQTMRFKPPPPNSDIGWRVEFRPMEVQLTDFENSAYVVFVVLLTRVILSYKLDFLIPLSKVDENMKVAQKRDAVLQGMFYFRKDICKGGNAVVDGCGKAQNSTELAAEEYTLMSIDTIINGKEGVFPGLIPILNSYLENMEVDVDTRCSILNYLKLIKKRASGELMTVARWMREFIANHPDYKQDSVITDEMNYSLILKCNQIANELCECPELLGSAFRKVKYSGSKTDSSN
UniProt Q96AE4: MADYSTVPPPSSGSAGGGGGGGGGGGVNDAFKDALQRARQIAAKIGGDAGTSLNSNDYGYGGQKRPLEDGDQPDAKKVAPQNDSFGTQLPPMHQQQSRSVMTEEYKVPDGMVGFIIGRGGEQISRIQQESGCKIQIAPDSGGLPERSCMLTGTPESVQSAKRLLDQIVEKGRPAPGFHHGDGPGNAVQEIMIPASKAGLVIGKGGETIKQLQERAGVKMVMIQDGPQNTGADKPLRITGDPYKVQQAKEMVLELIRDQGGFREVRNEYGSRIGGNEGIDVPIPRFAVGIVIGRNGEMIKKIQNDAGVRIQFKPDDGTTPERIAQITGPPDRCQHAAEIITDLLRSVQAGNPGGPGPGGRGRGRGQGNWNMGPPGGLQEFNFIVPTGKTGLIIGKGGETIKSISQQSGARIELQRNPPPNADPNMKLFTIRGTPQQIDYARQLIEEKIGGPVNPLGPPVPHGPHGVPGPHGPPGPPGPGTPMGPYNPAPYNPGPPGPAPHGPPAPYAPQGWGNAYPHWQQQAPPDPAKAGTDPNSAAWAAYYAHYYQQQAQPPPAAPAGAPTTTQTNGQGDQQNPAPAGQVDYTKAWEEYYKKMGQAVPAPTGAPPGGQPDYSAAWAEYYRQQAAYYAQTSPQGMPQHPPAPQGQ
UniProt Q9UJY4: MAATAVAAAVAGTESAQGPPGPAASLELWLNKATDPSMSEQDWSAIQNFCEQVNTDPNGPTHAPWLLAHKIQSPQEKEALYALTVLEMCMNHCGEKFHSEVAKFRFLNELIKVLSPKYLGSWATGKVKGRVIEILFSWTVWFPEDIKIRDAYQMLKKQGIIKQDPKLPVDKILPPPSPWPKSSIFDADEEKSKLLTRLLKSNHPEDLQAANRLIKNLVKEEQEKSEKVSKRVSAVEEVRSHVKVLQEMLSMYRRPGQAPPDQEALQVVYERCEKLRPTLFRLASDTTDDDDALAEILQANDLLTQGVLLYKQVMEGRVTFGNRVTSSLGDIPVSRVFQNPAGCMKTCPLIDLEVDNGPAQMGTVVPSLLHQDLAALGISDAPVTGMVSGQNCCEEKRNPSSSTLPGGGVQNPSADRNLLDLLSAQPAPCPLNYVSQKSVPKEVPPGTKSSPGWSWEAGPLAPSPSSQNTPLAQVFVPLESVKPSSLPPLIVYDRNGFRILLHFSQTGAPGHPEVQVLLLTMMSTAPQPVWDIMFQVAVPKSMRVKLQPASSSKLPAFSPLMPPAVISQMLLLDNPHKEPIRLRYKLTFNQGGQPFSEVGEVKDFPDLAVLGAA
UniProt Q9NZ52: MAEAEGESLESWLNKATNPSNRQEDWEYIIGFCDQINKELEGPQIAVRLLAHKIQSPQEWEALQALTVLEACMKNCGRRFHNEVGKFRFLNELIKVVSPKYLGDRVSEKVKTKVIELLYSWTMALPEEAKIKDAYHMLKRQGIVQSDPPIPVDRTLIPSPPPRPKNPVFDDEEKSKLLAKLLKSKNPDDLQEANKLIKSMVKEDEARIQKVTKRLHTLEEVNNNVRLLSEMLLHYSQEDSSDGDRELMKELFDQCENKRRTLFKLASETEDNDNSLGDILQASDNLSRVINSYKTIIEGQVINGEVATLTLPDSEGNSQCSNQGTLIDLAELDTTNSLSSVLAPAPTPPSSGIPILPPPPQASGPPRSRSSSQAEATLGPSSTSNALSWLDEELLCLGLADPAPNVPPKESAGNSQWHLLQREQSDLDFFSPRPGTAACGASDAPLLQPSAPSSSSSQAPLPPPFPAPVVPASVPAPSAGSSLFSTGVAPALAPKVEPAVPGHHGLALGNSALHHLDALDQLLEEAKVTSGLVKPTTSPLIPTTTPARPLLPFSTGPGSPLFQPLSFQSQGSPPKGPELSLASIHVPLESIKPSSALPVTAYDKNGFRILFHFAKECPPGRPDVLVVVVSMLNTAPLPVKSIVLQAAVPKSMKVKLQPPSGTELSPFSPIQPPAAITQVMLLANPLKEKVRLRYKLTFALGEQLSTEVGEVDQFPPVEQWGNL
UniProt P38435: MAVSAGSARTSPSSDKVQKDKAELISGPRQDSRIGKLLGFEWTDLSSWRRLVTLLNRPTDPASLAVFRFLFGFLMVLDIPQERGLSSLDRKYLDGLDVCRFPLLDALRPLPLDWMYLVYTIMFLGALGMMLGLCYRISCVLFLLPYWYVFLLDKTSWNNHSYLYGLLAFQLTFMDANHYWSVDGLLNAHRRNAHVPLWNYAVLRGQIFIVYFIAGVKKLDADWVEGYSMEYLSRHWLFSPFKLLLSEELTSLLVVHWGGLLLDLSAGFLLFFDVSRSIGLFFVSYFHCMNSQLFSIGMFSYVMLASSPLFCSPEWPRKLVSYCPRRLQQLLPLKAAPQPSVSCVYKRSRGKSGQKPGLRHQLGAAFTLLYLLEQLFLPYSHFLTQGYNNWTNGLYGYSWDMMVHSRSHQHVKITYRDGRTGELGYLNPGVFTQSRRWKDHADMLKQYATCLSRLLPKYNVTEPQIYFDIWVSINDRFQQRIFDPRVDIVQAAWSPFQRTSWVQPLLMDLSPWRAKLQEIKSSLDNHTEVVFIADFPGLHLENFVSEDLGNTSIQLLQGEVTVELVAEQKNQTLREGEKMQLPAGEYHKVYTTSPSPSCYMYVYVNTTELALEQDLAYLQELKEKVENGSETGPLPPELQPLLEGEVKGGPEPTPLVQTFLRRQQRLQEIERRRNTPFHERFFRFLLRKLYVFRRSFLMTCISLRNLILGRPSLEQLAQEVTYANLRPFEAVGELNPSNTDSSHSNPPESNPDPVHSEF
UniProt P04062: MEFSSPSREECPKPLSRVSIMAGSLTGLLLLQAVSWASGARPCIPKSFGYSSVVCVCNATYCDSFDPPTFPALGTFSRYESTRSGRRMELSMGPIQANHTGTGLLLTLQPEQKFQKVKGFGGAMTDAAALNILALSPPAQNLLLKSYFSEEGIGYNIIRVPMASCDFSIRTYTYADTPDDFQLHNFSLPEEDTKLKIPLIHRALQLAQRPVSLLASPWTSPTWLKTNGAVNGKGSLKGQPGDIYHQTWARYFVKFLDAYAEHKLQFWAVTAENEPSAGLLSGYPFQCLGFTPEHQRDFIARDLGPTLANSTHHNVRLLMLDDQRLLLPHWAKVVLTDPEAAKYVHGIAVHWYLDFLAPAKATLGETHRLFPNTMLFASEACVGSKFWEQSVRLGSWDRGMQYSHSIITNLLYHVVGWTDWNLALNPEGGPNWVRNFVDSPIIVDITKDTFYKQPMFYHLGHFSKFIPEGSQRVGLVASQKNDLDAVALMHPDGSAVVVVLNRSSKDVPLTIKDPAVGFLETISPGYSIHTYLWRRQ

[2] = compound: CC1=C(C=C(C=C1)NC(=O)C2=CC(=CC=C2)N(C)C)NC(=O)C3=CC=C(C=C3)O
How it was run: as §1

[3] = compound: CC1=CC=C(C=C1)SC2=C3C=C(SC3=CN=C2)C(=O)N
How it was run: as §1

[4] = compound: CC1=NC(=CC=C1)C2=C(N=C(N2)C(C)(C)C)C3=CC4=NC=CN=C4C=C3
How it was run: as §1

Nexturastat A = compound: CCCCN(Cc1ccc(C(=O)NO)cc1)C(=O)Nc1ccccc1 [Nexturastat A]
How it was run: as §1

vemurafenib = compound: CCCS(=O)(=O)Nc1ccc(F)c(C(=O)c2c[nH]c3ncc(-c4ccc(Cl)cc4)cc23)c1F [vemurafenib]
How it was run: as §1

[5] = compound: CCCS(=O)(=O)Nc1ccc(F)c(C(=O)c2c[nH]c3ncc(Cl)cc23)c1F
How it was run: as §1

[6] = compound: CCCc1cc(C)[nH]c(=O)c1CNC(=O)c1cc(-c2ccnc(N3CCN(C)CC3)c2)cc2c1cnn2C(C)C
How it was run: as §1

givinostat = compound: CCN(CC)Cc1ccc2cc(COC(=O)Nc3ccc(C(=O)NO)cc3)ccc2c1 [givinostat]
How it was run: as §1

barasertib = compound: CCN(CCCOc1ccc2c(Nc3cc(CC(=O)Nc4cccc(F)c4)[nH]n3)ncnc2c1)CCOP(=O)(O)O [barasertib]
How it was run: as §1

| Target | log2 fold change [1] | log2 fold change [2] | log2 fold change [3] | log2 fold change [4] | log2 fold change (Nexturastat A) | log2 fold change (vemurafenib) | log2 fold change [5] | log2 fold change [6] | log2 fold change (givinostat) | log2 fold change (barasertib) |
| --- | --- | --- | --- | --- | --- | --- | --- | --- | --- | --- |
| FOXO3 (UniProt O43524) | inactive: 0.247 | inactive: -0.039 | inactive: 0.037 | inactive: 0.119 | inactive: 0.024 | inactive: -0.023 | inactive: 0.017 | inactive: -0.159 | inactive: 0.012 | – |
| GCLC (UniProt P48506) | inactive: 0.023 | inactive: -0.053 | inactive: 0.014 | inactive: 0.01 | inactive: -0.053 | inactive: 0.032 | inactive: -0.005 | inactive: -0.015 | inactive: 0.03 | inactive: 0.028 |
| FUBP1 (UniProt Q96AE4) | inactive: 0.105 | inactive: -0.148 | inactive: -0.036 | inactive: 0.057 | inactive: 0.011 | inactive: 0.078 | inactive: -0.072 | inactive: 0.07 | inactive: 0.086 | inactive: 0.017 |
| GGA2 (UniProt Q9UJY4) | inactive: -0.015 | inactive: 0.033 | inactive: -0.047 | inactive: 0.06 | active: 0.582 | inactive: 0.053 | inactive: 0.017 | inactive: -0.059 | inactive: -0.03 | inactive: 0.051 |
| GGA3 (UniProt Q9NZ52) | inactive: -0.045 | inactive: 0.006 | inactive: -0.007 | inactive: 0.007 | inactive: -0.149 | inactive: 0.072 | inactive: 0.027 | inactive: -0.001 | inactive: 0.025 | inactive: 0.035 |
| GGCX (UniProt P38435) | inactive: 0.052 | inactive: 0.038 | inactive: 0.009 | inactive: -0.062 | inactive: 0.022 | inactive: -0.018 | inactive: 0.001 | inactive: 0.132 | inactive: 0.098 | inactive: 0.037 |
| GBA (UniProt P04062) | inactive: 0 | inactive: 0.006 | inactive: -0.041 | inactive: 0.027 | inactive: 0.061 | inactive: -0.033 | inactive: -0.065 | inactive: 0.045 | inactive: 0 | inactive: 0.015 |
